Consider 18 substances from patent US20250339551A1 (HANGZHOU SEEHE BIOTECHNOLOGY CO., LTD, priority 2023, published 2025).

The first data set can be described thus: Fmoc solid-phase peptide synthesis; 2-chlorotrityl chloride resin; HOBt/DIC. To be noted: whole synthesis.
In turn, “((S)-7-((S)-7-(3-(2-(2-(4-(2,5-dioxo-2,5-dihydro-1H-pyrrol-1-yl)butanamido)ethoxy)ethoxy)propanamido)-2,2-dimethyl-4,8-dioxo-3,12,15-trioxa-9-azaoctadecan-18-amido)-2,2-dimethyl-4,8-dioxo-3,12,15-trioxa-9-azaoctadecan-18-oyl)-L-valine-CTC resin” came in with a crude yield of 51%.

A short description of the next data set: general procedure: hybrid (solid and solution phase) peptide synthesis; 2-chlorotrityl chloride resin; HOBt/DIC. To be noted: conjugation step.
The substance “(37S,45S)-37-(4-(2,5-dioxo-2,5-dihydro-1H-pyrrol-1-yl)butanamido)-45-” yielded a conjugation yield of 97%. Take “((2R,3R,5R)-5-(4-amino-2-oxopyrimidin-1 (2H)-yl)-3-((tert-butyldimethylsilyl) oxy)-4,4-difluorotetrahydrofuran-2-yl)methyl di-tert-butyl phosphate”: the conjugation yield was determined as 7%.

The same data set, now with this note: coupling step.
For “1-(((2S,3S)-1-(((1R,3R)-1-acetoxy-1-(4-(((2R,4S)-4-carboxy-1-phenylpentan-2-yl)carbamoyl)thiazol-2-yl)-4-methylpentan-3-yl)(methyl)amino)-3-methyl-1-oxopentan-2-yl)amino)-N-(4-((S)-2-((tert-butoxycarbonyl)amino)propanamido)benzyl)-N,N,2-trimethyl-1-oxopropan-2-aminium”, the step yield is listed as 54% yield. Same read-out and setting: then “((S)-5-(tert-butoxy)-2-((S)-37-(4-(2,5-dioxo-2,5-dihydro-1H-pyrrol-1-yl) butanamido)-31,38-dioxo-2,5,8,11,14,17,20,23,26,29-decaoxa-32,39-diazatritetracontan-43-amido)-5-oxopentanoyl)-L-valine”, with 65% yield; and “benzyl (2S,4R)-4-(2-((6S,9R,11R,14S)-6-((S)-sec-butyl)-9-isopropyl-2,3,3,8,14,18,18-heptamethyl-4,7,13,16-tetraoxo-12,17-dioxa-2,5,8,15-tetraazanonadecan-11-yl)thiazole-4-carboxamido)-2-methyl-5-phenylpentanoate”, with 82% yield. In turn, “benzyl (2S,4R)-4-(2-((6S,9R,11R,14S,17S)-6-((S)-sec-butyl)-9-isopropyl-2,3,3,8,14,17,21,21-octamethyl-4,7,13,16,19-pentaoxo-12,20-dioxa-2,5,8,15,18-pentaazadocosan-11-yl)thiazole-4-carboxamido)-2-methyl-5-phenylpentanoate” came in with a step yield of 100% yield. On the same count and under the same terms, then “tert-butyl (2S,4R)-5-(3-((5S,8S)-1-(9H-fluoren-9-yl)-5-isopropyl-8-methyl-3,6,9-trioxo-2-oxa-4,7,10-triazatetradecan-14-amido)-4-hydroxyphenyl)-4-((tert-butoxycarbonyl)amino)-2-methylpentanoate”, with 100% yield.

Still in this data set, the particulars now being: late stage modification step.
In the case of “1-(((2S,3S)-1-(((1R,3R)-1-acetoxy-1-(4-(((2R,4S)-4-carboxy-1-phenylpentan-2-yl)carbamoyl)thiazol-2-yl)-4-methylpentan-3-yl)(methyl)amino)-3-methyl-1-oxopentan-2-yl)amino)-N-(4-((S)-2-((S)-2-aminopropanamido)propanamido)benzyl)-N,N,2-trimethyl-1-oxopropan-2-aminium”, the step yield worked out at 64% yield. With “(2S,4R)-4-(2-((6S,9R,11R,14S,17S)-6-((S)-sec-butyl)-9-isopropyl-2,3,3,8,14,17,21,21-octamethyl-4,7,13,16,19-pentaoxo-12,20-dioxa-2,5,8,15,18-pentaazadocosan-11-yl)thiazole-4-carboxamido)-2-methyl-5-phenylpentanoic acid”, the step yield came out at 44% yield.

In turn, “(2S,4R)-4-(2-((6S,9R,11R,14S,17S)-17-amino-6-((S)-sec-butyl)-9-isopropyl-2,3,3,8,14-pentamethyl-4,7,13,16-tetraoxo-12-oxa-2,5,8,15-tetraazaoctadecan-11-yl)thiazole-4-carboxamido)-2-methyl-5-phenylpentanoic acid” showed a step yield of 100% yield. Turning to “(2S,4R)-5-(3-((5S,8S)-1-(9H-fluoren-9-yl)-5-isopropyl-8-methyl-3,6,9-trioxo-2-oxa-4,7,10-triazatetradecan-14-amido)-4-hydroxyphenyl)-4-amino-2-methylpentanoic acid”, the step yield came to 100% yield. “benzyl (2S,4R)-4-(2-((1R,3R)-3-((2S,3S)-2-(2-(dimethylamino)-2-methylpropanamido)-N,3-dimethylpentanamido)-1-hydroxy-4-methylpentyl)thiazole-4-carboxamido)-2-methyl-5-phenylpentanoate” returned a step yield of 85% yield. On the same count and under the same terms, then “benzyl (2S,4R)-4-(2-((6S,9R,11R,14S)-14-amino-6-((S)-sec-butyl)-9-isopropyl-2,3,3,8-tetramethyl-4,7,13-trioxo-12-oxa-2,5,8-triazapentadecan-11-yl)thiazole-4-carboxamido)-2-methyl-5-phenylpentanoate”, with 100% yield. Regarding “perfluorophenyl (37S,45S)-37-(4-(2,5-dioxo-2,5-dihydro-1H-pyrrol-1-yl) butanamido)-45-”, the step yield came to 100%.

Still in this data set, the particulars now being: whole synthesis.
On to “((S)-2-((S)-37-((((9H-fluoren-9-yl)methoxy)carbonyl)amino)-31,38-dioxo-2,5,8,11,14,17,20,23,26,29-decaoxa-32,39-diazatritetracontan-43-amido)-5-(tert-butoxy)-5-oxopentanoyl)-L-alanyl-L-alanine”, for which the crude yield was determined as 96% yield. Still for that read-out and setting: then “((S)-2-((S)-37-((((9H-fluoren-9-yl)methoxy)carbonyl)amino)-31,38-dioxo-2,5,8,11,14,17,20,23,26,29-decaoxa-32,39-diazatritetracontan-43-amido)-5-(tert-butoxy)-5-oxopentanoyl)-L-valine”, with 84% yield; and “((S)-5-(tert-butoxy)-2-((S)-37-(4-(2,5-dioxo-2,5-dihydro-1H-pyrrol-1-yl) butanamido)-31,38-dioxo-2,5,8,11,14,17,20,23,26,29-decaoxa-32,39-diazatritetracontan-43-amido)-5-oxopentanoyl)-L-alanyl-L-alanine”, with 100% yield.
